Results taken from PubChem BioAssay AID1508600 (Functional Genomics Laboratory (NCATS/FGL), 2020).
Out of some 53,000 sequences screened, about 3,700 (7%) were called active.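 How the source made its calls: active means gene knockdowns whose robust z-score for IL-1 alpha signal is at least 2 or at most -2, so actives lie on both sides; inactive means the rest.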 This is one part of the list.

Experiment: Components of the Cytosolic LPS Sensing Pathway: Gene Identification via Genome-wide siRNA Screen;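 further: robust z of the log signal after scaling to non-targeting control siRNA wells of the plate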
Conditions: RAW264.7 macrophages, IL-1a HTRF, actives lie on both sides, screened at 100 nM (by protocol), cells primed 5 h with Pam3CSK4 first
Method in brief: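 Supernatant IL-1a by HTRF from RAW264.7 cells primed with Pam3CSK4 (5 hours) and transfected with LipidA (24 hour) after 48h siRNA knockdown at 100 nM; cell viability checked with CellTiter-Glo.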

| Sequence | z-score |
| --- | --- |
| GCACUCACAUUGAAUUAAATT against Haus2 | inactive: -0.285 |
| GGUAUUUGAAGGGACAUCUTT against Atp6v1b2 | inactive: -0.817 |
| GCUCCCUUCCCAAUAAAGCTT against Gadd45gip1 | inactive: 0.208 |
| GGAAGUAGUCUUCUACAGUTT against Cyp4f15 | inactive: -0.0176 |
| GCUGCUUUGGCAACUUUCATT against Lix1 | inactive: -0.696 |
| CGUUAGCUGUUAUGAUCUATT against Cept1 | inactive: 0.203 |
| GGCAGUAUUGACUCCUACCTT against 6430548M08Rik | inactive: -0.973 |
| GGAUGCUACGUUCUGCUAGTT against Bcat2 | inactive: 0.349 |
| GGAAGAAUCUGUUACUUUUTT against Rad1 | inactive: -0.693 |
| GGAGUUUCUGGAAUGCAGGTT against Sec22c | inactive: 0.741 |
| GGCCUCAGAUAUAGGUCUCTT against Cln6 | inactive: 0.513 |
| GGUCAGAAGAGAUCAAAAGTT against Ttc23 | inactive: -0.0386 |
| GCUUCACCUAGAGAUUAUUTT against Dcun1d4 | inactive: -0.557 |
| GCAGCUUUUUGAGGUGUUATT against Slc9a7 | active: 3.07 |
| CGCAUUGCCAAACAACUCUTT against Gad2 | inactive: 0.295 |
| GGAGAACGAUUUCGAUCGCTT against Cope | inactive: -0.356 |
| CCACUAAUUACAGUAACAUTT against Akr1c20 | inactive: -1.11 |
| GGUACGCUCCAGGAAUAUCTT against Suds3 | inactive: 0.584 |
| CCUUUUCUAUAGAUUCUCGTT against Vmn1r178 | inactive: 0.529 |
| GCAUUUUGUGGAAAAGGCUTT against Olfr582 | active: -2.19 |
| CGUGGAGAACUGGUAUCAGTT against Psg17 | inactive: -0.699 |
| GGAGAUCCAGAAGAGACGATT against Mcub | inactive: -0.97 |
| GGAUUGAUUUUUGGAGGGCTT against Fxyd4 | inactive: 0.569 |

Reformatted as tab-separated lines: entries from further up.
Sequence	z-score
GGCAGUAUUGACUCCUACCTT against 6430548M08Rik	inactive: -0.973
GGAUGCUACGUUCUGCUAGTT against Bcat2	inactive: 0.349
GGAAGAAUCUGUUACUUUUTT against Rad1	inactive: -0.693
GGAGUUUCUGGAAUGCAGGTT against Sec22c	inactive: 0.741
GGCCUCAGAUAUAGGUCUCTT against Cln6	inactive: 0.513

Remaining list, next part.

| Sequence | z-score |
| --- | --- |
| GGACACUUUACUUUUGAGATT against Lyrm1 | inactive: -0.162 |
| GGUUUCAAACUCUUGUAAUTT against Pgrmc1 | inactive: -0.139 |
| GGAACAUAUACUGGGCAACTT against Tcl1b1 | inactive: 1.75 |
| GCACUUACUCAAAUGGAACTT against Cyp2j6 | inactive: -0.396 |
| GCUUCCCUGGACCCAAUGUTT against Artn | inactive: 1.49 |
| GACAAAACAAUUUCCUAUGTT against Olfr805 | inactive: -0.318 |
| GGCGACUCUGUCACAAUUUTT against C1rl | inactive: 0.578 |
| GGUGGUUUUAAAGUGCUGGTT against Tmprss11b | inactive: -1.08 |
| CCACGCCAUCUUACUGACUTT against Adamts16 | inactive: -0.336 |
| GGUGUUGAAAUAAUUUCUCTT against Phospho2 | inactive: -0.285 |
| GGACUUGUCCGCUCAUUGGTT against Usp54 | inactive: -1.13 |
| CCUGUCAUCUAUGCUAUGATT against Npnt | inactive: 0.0124 |
| GGCAGCAUUGAGUGUGUGATT against Asb13 | active: 2.53 |
| GGAUUCUGUGAUUUGUCUATT against Prss39 | inactive: -0.331 |
| GCAUUAUGCAAAUGAGGAUTT against Phtf2 | inactive: -0.52 |
| GGCAGGAAUCUAUAUUAAUTT against Slc17a3 | inactive: 0.48 |
| GCGCAAUAUAGAGUCAUCATT against Rnls | active: -2.83 |
| GGCUGAAUUUGAUAAAACCTT against Oxr1 | inactive: -0.77 |
| GGAGACAUCAACAAGUUGATT against Fam167a | inactive: -0.772 |
| GGAAAAAGCUCAAAGGCGATT against Gap43 | inactive: -0.216 |
| GGAAAAGAAGCUACGCUUGTT against Rrp9 | inactive: -0.0692 |
| CCAUACCAUUAGUGUCGGCTT against Acot11 | inactive: -1.89 |
| GGAUGUUCAACCUAAACGATT against Ferd3l | inactive: -0.347 |

| Sequence | z-score |
| --- | --- |
| CCUCCGAAUUGCCCUUCUGTT against Gtf2h4 | inactive: 0.0232 |
| CCUGACAGCACUUUGUGGATT against Arhgef4 | inactive: 0.481 |
| CCAAACGAUUUAUAAUCAGTT against Ints4 | inactive: 1.49 |
| CCCGUCUCCUAAUUUUAACTT against Fgf17 | inactive: -0.762 |
| UGGUUCUACAGCAUUUGUGTT against Olfr954 | inactive: -0.67 |
| GGCUACAAUAGCUGUGGUATT against Magea4 | inactive: -0.237 |
| GGAUCAAGUGGCUGAUUUGTT against Ube2t | inactive: -0.457 |
| GGUUAGGGUGCGUGUUACUTT against 2310033P09Rik | inactive: 0.358 |
| GGUUUUAAUGGUACGAUUUTT against Nr1d2 | inactive: 0.36 |
| GGGAAGAGAAACACAGAUGTT against Ooep | inactive: 0.0686 |
| GGAACUGAAUCCAGAAAUGTT against Ldhb | inactive: -0.609 |
| GGUUUCUCGACCUACAUUUTT against Lsm14b | inactive: -1.32 |
| GGUUACUUGAGUGAAUAAUTT against Asb12 | inactive: 1.11 |
| GGAAAGGCUCAAUGAGAGCTT against Nipa2 | active: -3.3 |
| CGCACAGUGGACAUUUGAGTT against Nsl1 | inactive: -1.07 |
| GCUGAUCUAACCAACAGCATT against Mark2 | inactive: -1.32 |
| GCCAUAGAAAGGAUUCAUATT against Epb41l4a | inactive: -0.131 |
| UGCAAUCCGGAUCAAACGUTT against Cebpb | active: -2.03 |
| GGUGUCUGACUUUAAGAAGTT against Foxred1 | inactive: -0.247 |
| GGAAUGAAGUUCACAAUAATT against Ide | inactive: 0.173 |
| CGGUUAAAAGCACUGCUCGTT against Tmc1 | inactive: 1.68 |
| GUUCAAGCAGAGGCAGACUTT against Pde6h | inactive: -2 |
